Here are results for 2 substances from paper PMC7803728.

Chains of the proteins cited; added tags and fusions are not shown.
UniProt P56517: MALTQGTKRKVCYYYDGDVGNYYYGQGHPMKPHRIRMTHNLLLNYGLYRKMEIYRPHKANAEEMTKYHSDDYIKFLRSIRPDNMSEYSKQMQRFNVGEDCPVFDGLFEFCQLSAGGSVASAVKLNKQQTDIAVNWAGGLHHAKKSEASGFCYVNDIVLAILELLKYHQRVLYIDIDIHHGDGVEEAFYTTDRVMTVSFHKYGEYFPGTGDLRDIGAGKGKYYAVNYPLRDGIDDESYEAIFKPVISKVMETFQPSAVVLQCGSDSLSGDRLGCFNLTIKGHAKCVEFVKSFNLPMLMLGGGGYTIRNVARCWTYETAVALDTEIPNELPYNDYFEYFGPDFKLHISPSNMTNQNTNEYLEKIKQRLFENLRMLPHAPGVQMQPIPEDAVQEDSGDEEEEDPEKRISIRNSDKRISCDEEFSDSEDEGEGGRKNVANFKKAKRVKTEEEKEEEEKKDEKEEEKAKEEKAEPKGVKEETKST
UniProt P56519: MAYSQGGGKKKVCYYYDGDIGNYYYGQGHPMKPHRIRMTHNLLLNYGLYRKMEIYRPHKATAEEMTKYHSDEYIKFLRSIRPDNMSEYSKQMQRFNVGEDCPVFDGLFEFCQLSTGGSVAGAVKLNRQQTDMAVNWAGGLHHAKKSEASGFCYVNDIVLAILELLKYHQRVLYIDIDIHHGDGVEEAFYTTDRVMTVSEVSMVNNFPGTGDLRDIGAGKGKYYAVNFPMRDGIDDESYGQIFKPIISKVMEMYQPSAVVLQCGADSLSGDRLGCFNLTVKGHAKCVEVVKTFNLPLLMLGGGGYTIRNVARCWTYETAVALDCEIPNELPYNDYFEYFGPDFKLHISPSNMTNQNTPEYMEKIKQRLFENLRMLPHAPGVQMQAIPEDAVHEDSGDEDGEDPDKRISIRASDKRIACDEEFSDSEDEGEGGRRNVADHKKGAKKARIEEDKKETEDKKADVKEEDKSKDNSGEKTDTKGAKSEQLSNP

Assay [1] has as its target FLAG tagged full length chHDAC1 (pcDNA-FLAG-chHDAC1) (chicken) (UniProt P56517). Description: co-IP; 293T cells co-transfected with FLAG- and HA-tagged chHDAC1 (or chHDAC2) with pcDNA-T7-Meq or empty vector, 48 h; precipitated with FLAG antibody or normal mouse IgG; Western blot with T7, HA and FLAG antibodies.
For assay [2], the target named is FLAG tagged full length chHDAC2 (pcDNA-FLAG-chHDAC2) (chicken) (UniProt P56519). The assay is described as above.

No constants are given. Whether binding was seen depends on the method and setting. Binding seen in cells or lysates may run through a third protein. Some entries that bind do so weakly or less than the wild type.

With “HA tagged full length chHDAC1 (pcDNA-HA-chHDAC1) (from UniProt P56517 1-480) (enzyme)”, the binding result in assay [1] is “binds”. For “HA tagged full length chHDAC2 (pcDNA-HA-chHDAC2) (from UniProt P56519 1-488) (enzyme)”, the binding entry in assay [2] is “binds”.
